Where “and” joins values, the source holds several entries; their conditions need not be identical. Equal entries are not always repeated. Among all 400,000 compounds or so, about 5,500 (1.4%) were called active. Inconclusive results, whose numbers are uncertain, are shown with a selection of clear calls. Calls follow the shape of the dose curve; as a rule, active = well fitted cell-killing curve with a large enough effect; inconclusive = small, poorly fitted or top-dose-only effect, or effect the other way; inactive = flat fitted curve, though single readings scatter. Potencies of inconclusive entries are doubtful fits and often do not repeat. Some compounds were tested as several samples or in several runs, with calls that do not always agree.
Assay: qHTS assay for MDR1-selective chemotherapeutics: Primary screen using the parental adenocarcinoma cell KB-3-1; also: nearly all actives have a fitted effect of over 60% in size
Conditions: KB-3-1 viability, CellTiter-Glo ATP luminescence, 72 h; activity change, negative = cytotoxic: at 46.1 µM (top of the series)
Procedure, shortened: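 Parental KB-3-1 viability, qHTS format: 72 h compound exposure, 37 °C; CellTiter-Glo; media-only wells and DMSO plates as controls; concentration-effect fits on corrected data.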
% is scaled to controls: 0 for no effect and ±100 for the full control effect; potency is read from the fitted curve at half-maximal effect.

SMILES	Potency	activity change, negative = cytotoxic
CN1C2CCC1CC(OC(=O)c1cc(Cl)cc(Cl)c1)C2 (configuration not stated)	inconclusive: 14.6 µM [cytotoxic, partial curve]	
O=[N+]([O-])c1ccc(N2CCCCCC2)c2nonc12	inconclusive: 20.6 µM [cytotoxic, single point]	
COCCOC(=O)c1c(N)n(Cc2ccccc2)c2nc3ccccc3nc12		inactive: 9.88%
COC(=O)[C@@H]1[C@@H](C(=O)OC)C2(c3ccccc3-c3ccccc32)N(c2ccc(Cl)cc2)N1C#N	inconclusive: 29.1 µM [cytotoxic, single point]	
O=C(c1ccc2c(c1)ncn2-c1ccc(F)cc1F)N1CCC2(CC1)OCCO2	inconclusive: 29.1 µM [cytotoxic, single point]	
CN1CC(C(=O)c2ccccc2)C(c2ccccc2)C1 (configuration not stated)		inactive: 15.9%
CCOC(=O)[C@]12Cc3cc(C)ccc3[C@H]1N(C1CCCCC1)C(=O)c1cc(OC)ccc12	active: 3.26 µM	
Cc1ccc(CN2C(=O)CN=C(c3ccccc3)c3ccccc32)cc1	inconclusive: 23.1 µM [cytotoxic, single point]	
N#CSCC(=O)N1c2ccccc2CCc2ccccc21	inconclusive: 29.1 µM [cytotoxic, single point]	
Cc1ccc2c(c1)C(Cc1nc3ccccc3c(=O)n1-c1ccc(Br)cc1)C(=O)N2 (configuration not stated)		inactive: -21.4%
Cc1ccc(CNCCc2ccc(F)cc2)s1		inactive: -4.27%
COC(=O)C1=C(c2ccc(F)cc2OCc2ccccc2)C[C@@H]2CC[C@H]1N2C(=O)NCc1ccc(Br)cc1	inconclusive: 18.4 µM [cytotoxic, single point]	
CC(=O)OC1CC(OC2C(O)CC(OC3C(O)CC(OC4CCC5(C)C(CCC6C5CCC5(C)C(C7=CC(=O)OC7)C(O)CC65O)C4)OC3C)OC2C)OC(C)C1OC1OC(CO)C(O)C(O)C1O (configuration not stated)	active: 1.16 µM	
CCCCN=C[C@]12CCC(O)CC1(O)CCC1[C@@H]2CC[C@]2(C)[C@H](C3C=CC(=O)O3)CCC12O (some centres not stated)	active: 0.231 µM	
C[n+]1c(-c2ccccc2)cc(CCCCc2cc(-c3ccccc3)[n+](C)c(-c3ccccc3)c2)cc1-c1ccccc1	inconclusive: 29.1 µM [cytotoxic, single point]	
Nc1ccc(CCN2CCCC2)cc1		inactive: 2.01%
Cc1cc(O)c2c(c1)C(=O)C13C(=C2O)C(=O)[C@H]2[C@@H](O)[C@@H]1[C@H]1[C@H](O)[C@@H]3C(=O)C3=C(O)c4c(O)cc(C)cc4C(=O)C312 (some centres not stated)	active: 9.2 µM	
CN(c1ccc(OCC(=O)N2CCN(C/C=C/c3ccccc3)CC2)cc1)S(=O)(=O)c1cccs1	inconclusive: 18.4 µM [cytotoxic, partial curve, poor fit]	
COC(=O)C1=C(c2c(C)noc2C)C[C@@H]2CC[C@H]1N2C(=O)NC(C)C	inconclusive: 14.6 µM [rising, partial curve]	
N#CC(C#N)=C(C#N)c1ccc(Nc2ccccc2)cc1		inactive: -22.4%
CCN1CCN(S(=O)(=O)c2ccc(Cl)c(C(=O)Nc3ccc(C(=O)N(CC)CC)cc3)c2)CC1		inactive: -10.7%

Single values from above:
In activity change, negative = cytotoxic, N#CC(C#N)=C(C#N)c1ccc(Nc2ccccc2)cc1 is listed with inactive: -22.4%
In activity change, negative = cytotoxic, Cc1ccc(CNCCc2ccc(F)cc2)s1 is listed with inactive: -4.27%
In Potency, COC(=O)C1=C(c2ccc(F)cc2OCc2ccccc2)C[C@@H]2CC[C@H]1N2C(=O)NCc1ccc(Br)cc1 is listed with inconclusive: 18.4 µM [cytotoxic, single point]
In activity change, negative = cytotoxic, COCCOC(=O)c1c(N)n(Cc2ccccc2)c2nc3ccccc3nc12 is listed with inactive: 9.88%
In activity change, negative = cytotoxic, Nc1ccc(CCN2CCCC2)cc1 is listed with inactive: 2.01%

Next records

SMILES	Potency	activity change, negative = cytotoxic
Cc1c(P(=S)(c2ccccc2)c2ccccc2)[n+]2ccccc2n1C	active: 2.59 µM	
COC(=O)C1=C(c2ccc(OC(F)(F)F)cc2)C[C@@H]2CC[C@H]1N2C(=O)NCc1cccc2ccccc12	inconclusive: 29.1 µM [cytotoxic, single point]	
O=c1[nH]c2ccccc2n1C1CCN(C(c2ccccc2OC(F)(F)F)c2nnnn2-c2ccc3c(c2)OCCO3)CC1 (configuration not stated)	inconclusive: 29.1 µM [cytotoxic, single point]	
COC(=O)C1=C(c2cccc(OCc3ccccc3)c2)C[C@@H]2CC[C@H]1N2C(=O)NNCc1ccccc1	inconclusive: 29.1 µM [cytotoxic, single point]	
Clc1ccc(C(c2ccc(Cl)cc2)n2cc[n+](CC(OCc3ccc(Cl)cc3Cl)c3ccc(Cl)cc3Cl)c2)cc1 (configuration not stated)	inconclusive: 18.4 µM [cytotoxic, single point] and inconclusive: 29.1 µM [cytotoxic, single point]	
COC(=O)C1=C(c2ccc(F)cc2OCc2ccccc2)C[C@@H]2CC[C@H]1N2C(=O)NCc1ccc(N(C)C)cc1	inconclusive: 23.1 µM [cytotoxic, single point]	
O=[N+]([O-])c1ccc(C[n+]2c(-c3ccccc3)cc(-c3ccccc3)cc2-c2ccccc2)cc1	inconclusive: 29.1 µM [cytotoxic, single point]	
CCOc1cc2c(cc1OCC)-n1cccc1C(c1ccc(OC)cc1)NC2 (configuration not stated)		inactive: -3.04%
O=C1NC(=O)C(=Cc2ccc(OCCOc3ccc([N+](=O)[O-])cc3)cc2)C(=O)N1		inactive: 0.756%
Cc1nonc1OCCNCCNc1ccc([N+](=O)[O-])c2cccnc12	inconclusive: 18.4 µM [cytotoxic, partial curve, poor fit]	
O=C1C(=O)c2cccc3cccc1c23	active: 16.4 µM	
Cc1ccc2c(c1)NP(=S)(Oc1ccccc1)N2 (configuration not stated)		inactive: 0%
c1ccc(-c2ccc(CN3Cc4ccccc4-n4nncc4C3)cc2)cc1	inconclusive: 29.1 µM [cytotoxic, single point]	
CC(C)(C)n1nnnc1C(c1cccc2ccccc12)N1CCC2(CC1)C(=O)NCN2c1ccccc1 (configuration not stated)	inconclusive: 29.1 µM [cytotoxic, single point]	
COC(=O)C1=C(c2cccc(OCc3ccccc3)c2)C[C@@H]2CC[C@H]1N2C(=O)NCc1ccc(C(F)(F)F)cc1	inconclusive: 25.9 µM [cytotoxic, single point]	
CCCCCn1c(=O)c(C(=O)NCc2ccccc2Cl)c(O)c2ccccc21	inconclusive: 18.4 µM [cytotoxic, single point]	
CN(C)C(=O)Oc1ccc(OCc2n(C)c3ccccc3[n+]2C)cc1	inconclusive: 18.4 µM [cytotoxic, single point]	
COC(=O)C1CN(C#N)N(c2ccc(Cl)cc2)C12c1ccccc1-c1ccccc12 (configuration not stated)	active: 5.17 µM	
c1ccc2c(CNC3CCCCCC3)c[nH]c2c1	inconclusive: 32.6 µM [cytotoxic, single point]	
Cc1cccc(CNCCc2c[nH]c3ccccc23)c1	inconclusive: 16.4 µM [cytotoxic, partial curve, poor fit]	
Cc1cccc(N2C(=O)NC(=O)/C(=C\c3ccc4c(c3)CCCN4Cc3ccccc3)C2=O)c1	inconclusive: 29.1 µM [cytotoxic, single point]	

SMILES	Potency	activity change, negative = cytotoxic
CCN(CC)C(=O)c1ccc(NC(=O)c2cccc(F)c2)cc1		inactive: -18.6%
Nc1c2c(nc3sc4c(c13)CCCC4)CCCCC2	inconclusive: 29.1 µM [cytotoxic, single point]	
CC(=O)O[C@H]1CCC2C3CCC4=CC(=O)CCC4=C3C=C[C@@]21C (some centres not stated)	inconclusive: 16.4 µM [cytotoxic, single point]	
COC(=O)C1=C(c2cccc(OCc3ccccc3)c2)C[C@@H]2CC[C@H]1N2C(=O)NCCOc1ccccc1Cl	inconclusive: 16.4 µM [cytotoxic, single point]	
COc1cc(OC)c(OC)cc1/C=C1/C(=O)NC(=O)N(Cc2ccccc2)C1=O	inconclusive: 0.82 µM [rising, partial curve]	
CCCCCCOc1ccc(CN2CCN(CCO)CC2)cc1	inconclusive: 20.6 µM [cytotoxic, single point]	
COC(=O)C1=C(c2ccc(F)cc2OCc2ccccc2)C[C@@H]2CC[C@H]1N2C(=O)NC1CCCCC1	inconclusive: 29.1 µM [cytotoxic, single point]	
CC/C(=N\NC(=O)c1ccccc1)c1c(O)n(Cc2ccccc2)c(=O)[nH]c1=O		inconclusive: 2.73%
O=C1NC(=O)[C@]2(Cc3ccccc3N3CCN(c4ccccc4)CC32)C(=O)N1Cc1ccccc1 (some centres not stated)		inactive: -17.9%
COC(=O)C1=C(c2ccc(-c3ccccc3)c(F)c2)C[C@@H]2CC[C@H]1N2C(=O)N1CCC(C)CC1	inconclusive: 23.1 µM [cytotoxic, single point]	
CCOC(=O)C1(CCc2ccccc2)CCN(Cc2cccc3c2OCO3)CC1	inconclusive: 20.6 µM [cytotoxic, single point]	
CC12CC[C@H]3[C@@H](CCC4(O)C[C@H](O)CCC34/C=N/NC(=O)c3ccccc3[N+](=O)[O-])C1(O)CCC2C1=CC(=O)OC1 (some centres not stated)	active: 9.2 µM	
O=C1NC(=S)N(c2ccccc2F)C(=O)/C1=C\c1cccs1	inconclusive: 16.4 µM [cytotoxic, single point]	
CC(C)(C)c1nc(N2CCN(C(=O)c3ccco3)CC2)c2nnn(Cc3ccccc3Cl)c2n1		inactive: -2.88%
CCC(C)OC(=O)c1c(N)n(Cc2cccs2)c2nc3ccccc3nc12 (configuration not stated)	inconclusive: 18.4 µM [cytotoxic, single point]	
CCOC(=O)[C@]12Cc3ccccc3[C@H]1N(C)C(=O)c1cc(OC)ccc12	active: 9.2 µM	
Cc1nn(CC(=O)N2CCC3(CC2)OCCO3)c(=O)c2cc3ccccc3n12	inconclusive: 18.4 µM [rising, single point]	
CCOC(=O)[C@]12Cc3cc(OC)ccc3[C@H]1N(C(C)C)C(=O)c1ccccc12	active: 6.51 µM	
CCOC(=O)[C@]12Cc3ccccc3[C@H]1N(C1CCCCC1)C(=O)c1cc(OC)ccc12	active: 4.61 µM	
O=[N+]([O-])c1cc(Cl)c(O)c(-[n+]2c(-c3ccccc3)cc(-c3ccccc3)cc2-c2ccccc2)c1	inconclusive: 20.6 µM [cytotoxic, single point]	

— PubChem BioAssay AID1347075 (National Center for Advancing Translational Sciences (NCATS), 2019)
